Measurements: patent US20130309254A1
No constants are given. Whether binding was seen depends on the method and setting. In cells and extracts the contact can be indirect. Some results given as binding are weak or reduced against the parent protein; the word gives no strength.

Molecular target: GRIN1, wild-type (UniProt Q05586)
Assay: co-immunoprecipitation with anti-GRIN1 from transfected HEK293T cells, anti-GRIN2A immunoblot

- binding: binds
Substance: human GRIN2A (glutamate receptor, ionotropic, N-methyl D-aspartate 2A), wild-type (from UniProt Q12879 23-1464)
